Measured values published in the supplement of paper PMC7877785.
± gives the uncertainty stated by the source. Many of these values have a large error.

Assay: self-splicing fitness, log relative to wild type (ln ratio); higher = more splicing; Tetrahymena group I intron in knt gene, E. coli kanamycin selection, DiMSum; sequences stand for … in CUCUCU…GGAGGGAAAAGUUAUCAGGCAUGCACCUGGUAGCUAGUCUUUAAACCAAUAGAUUGCAUCGGUUUAAAAGGCAAGACCGUCAAAUUGCGGGAAAGGGGUCAACAGCCGUUCAGUACCAAGUCUCAGGGGAAACUUUGAGAUGGCCUUGCAAAGGGUAUGGUAAUAAGCUGACGGACAUGGUCCUAACCACGCAGCCAAGUCCUAAGUCAACAGAUCUUCUGUUGAUAUGGAUGCAGUUCACAGACUAAAUGUCGGUCGGGGAAGAUGUAUUCUUCUCAUAAGAUAUAGUCGGACCUCUCCUUAAUGGGAGCUAGCGGAUGAAGUGAUGCAACACUGGAGCCGCUGGGAACUAAUUUGUAUGCGAAAGUAUAUUGAUUAGUUUUGGAGUACUCGUGGUCG
Method in brief: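 Colonies from six replicate transformations of E. coli BL21(DE3) were pooled and amplicon-sequenced on an Illumina HiSeq 2500. The library placed an intron with all eight P1ex-region nucleotides randomised inside the knt kanamycin-resistance gene on pET-22b(+), and cells grew overnight at 37°C or 30°C on LB agar with or without 25 μg/mL kanamycin (plus 100 μg/mL carbenicillin, 50 μM IPTG, 0.2% rhamnose). Fitness is the DiMSum error-weighted combination of wild-type-normalised replicate fold changes, kanamycin versus none.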

Sequence	self-splicing fitness (ln) (30 °C)	self-splicing fitness (ln) (37 °C)
AAAAAGCAAUAUUACGCCUC	-3.48 ± 0.6	
GCGGAGCAAUAUUACGAGGC	-1.99 ± 0.59	
CUCGAGCAAUAUUACGAGGC		-0.463 ± 0.87
CCAAAGCAAUAUUACGUAUC	-1.28 ± 0.11	-2.76 ± 0.24
UGCGAGCAAUAUUACGGUGC	-3.64 ± 0.53	
GAGGAGCAAUAUUACGGUUC	-4.35 ± 0.52	
GACGAGCAAUAUUACGAUAG	-5.2 ± 0.51	
AUCUAGCAAUAUUACGGGAA	-0.643 ± 0.13	-0.903 ± 0.14
AACUAGCAAUAUUACGCCGC		-3.69 ± 0.52
UUCGAGCAAUAUUACGGCUC	-2.11 ± 0.8	-2.11 ± 0.56
AAUGAGCAAUAUUACGGGUA	-4.41 ± 0.54	
GCUGAGCAAUAUUACGAUGC	-3.91 ± 1	-1.54 ± 1.2
UGAGAGCAAUAUUACGCCGU		-2.2 ± 0.51
CUACAGCAAUAUUACGUACA	-1.78 ± 0.17	-1.29 ± 0.2
CCGUAGCAAUAUUACGGAGC	-2.71 ± 0.56	-2 ± 0.57
CCGGAGCAAUAUUACGCGAC	-1.38 ± 0.73	
GCGAAGCAAUAUUACGCAUG	-3.12 ± 0.44	-2.76 ± 0.24
UCAAAGCAAUAUUACGAGGC	-3.58 ± 0.52	
GUAUAGCAAUAUUACGCCAA		-1.62 ± 1.1
AAGGAGCAAUAUUACGGAUG	-3.8 ± 0.21	-3.29 ± 0.35
UGGGAGCAAUAUUACGACAC	-0.135 ± 0.61	0.791 ± 1.1
CCCCAGCAAUAUUACGCCGA	-4.67 ± 1	
AGUCAGCAAUAUUACGAUAU	-0.289 ± 0.096	0.475 ± 0.11
ACUGAGCAAUAUUACGCCUC		-2.78 ± 0.54

Sequence	self-splicing fitness (ln) (30 °C)	self-splicing fitness (ln) (37 °C)
UGAGAGCAAUAUUACGGACU	-3.5 ± 1	-2.6 ± 0.76
UCCGAGCAAUAUUACGAAGU	-4.44 ± 1	
ACGAAGCAAUAUUACGCAUA	-1.44 ± 0.08	-0.782 ± 0.072
GAUUAGCAAUAUUACGCAUC		-3.6 ± 0.73
UAUGAGCAAUAUUACGAUCC	-4.11 ± 0.52	
CAUUAGCAAUAUUACGCUUA	-2.22 ± 0.13	-2.16 ± 0.15
CGAGAGCAAUAUUACGCUGU	-5.46 ± 0.71	
UUUUAGCAAUAUUACGACCU	-3.09 ± 0.63	
CUCUAGCAAUAUUACGGAUC	-3.4 ± 0.21	-3.33 ± 0.33
UGUAAGCAAUAUUACGACUU	-1.06 ± 0.09	0.0267 ± 0.14
GACGAGCAAUAUUACGUAUC	-3.2 ± 0.6	
UAUGAGCAAUAUUACGGGAA	-3.51 ± 1	
AGUAAGCAAUAUUACGACGU	-0.0587 ± 0.09	-0.132 ± 0.087
GCGGAGCAAUAUUACGCGAA	-4.26 ± 1	
UCGGAGCAAUAUUACGGAAA	-3.81 ± 0.51	
ACUGAGCAAUAUUACGGUCC	-3.17 ± 0.53	
AGGGAGCAAUAUUACGUCGC		-2.64 ± 0.54
GCACAGCAAUAUUACGUAAC	-1.83 ± 0.092	-0.651 ± 0.11
UCUUAGCAAUAUUACGUUCC		-2.23 ± 0.5
CUAAAGCAAUAUUACGGCAC		-2.32 ± 0.55
AAUGAGCAAUAUUACGCAUA	-2.52 ± 0.19	-2.42 ± 0.24
CUGAAGCAAUAUUACGUCUC	-4.97 ± 0.58	
GGGGAGCAAUAUUACGCGAC		-0.101 ± 0.82
CCUCAGCAAUAUUACGCGGU	-3.37 ± 0.19	-2.98 ± 0.33

Some values from the list.
Value for GCUGAGCAAUAUUACGAUGC under self-splicing fitness (ln) (30 °C): -3.91 ± 1
Value for CAUUAGCAAUAUUACGCUUA under self-splicing fitness (ln) (37 °C): -2.16 ± 0.15

A second format for some results above.
Sequence | self-splicing fitness (ln) (30 °C) | self-splicing fitness (ln) (37 °C)
ACGAAGCAAUAUUACGCAUA | -1.44 ± 0.08 | -0.782 ± 0.072
GAUUAGCAAUAUUACGCAUC |  | -3.6 ± 0.73
UAUGAGCAAUAUUACGAUCC | -4.11 ± 0.52 | 

(continued)

Sequence	self-splicing fitness (ln) (30 °C)	self-splicing fitness (ln) (37 °C)
AUAUAGCAAUAUUACGCCUC	-3.06 ± 0.54	
GGGGAGCAAUAUUACGCCAA	-2.23 ± 0.6	
UGGGAGCAAUAUUACGGAUC	-5.23 ± 1	-3.37 ± 0.73
GUGGAGCAAUAUUACGUACC	-2.79 ± 0.57	-1.01 ± 0.53
UGGGAGCAAUAUUACGAAGU	-4.5 ± 1	
AAUGAGCAAUAUUACGAUCA	-2.53 ± 0.58	
UAAUAGCAAUAUUACGGAUC	-3.2 ± 0.77	
GUUGAGCAAUAUUACGGGGA	-3.78 ± 0.6	-2.17 ± 0.55
AGGGAGCAAUAUUACGAUGG	-3.81 ± 0.74	
AGAGAGCAAUAUUACGGGGC	-1.74 ± 0.55	-1.39 ± 1.2
GCAGAGCAAUAUUACGACCG		-1.53 ± 0.55
UCGUAGCAAUAUUACGGACC		-3.38 ± 1
GAGCAGCAAUAUUACGCUAU	-2.73 ± 0.27	-1.93 ± 0.17
AUGCAGCAAUAUUACGGGGU	-3.71 ± 0.17	-2.88 ± 0.18
GGACAGCAAUAUUACGUCCC		-1.62 ± 0.55
UGGGAGCAAUAUUACGUAAU	-4.4 ± 1	-1.4 ± 0.54
CUUCAGCAAUAUUACGGCGA	-4.05 ± 0.72	-3.05 ± 0.52
UCACAGCAAUAUUACGCCGA	-0.333 ± 0.1	0.184 ± 0.14
GCCGAGCAAUAUUACGUCAA	-4.59 ± 0.59	
GCGGAGCAAUAUUACGACCG	-1.73 ± 0.91	-1.85 ± 0.81
CUGGAGCAAUAUUACGAUGC	-4.31 ± 1	
GGUGAGCAAUAUUACGCUAG	-3.13 ± 0.74	
UCUAAGCAAUAUUACGUUUC	-4.52 ± 0.51	
GGGUAGCAAUAUUACGCCCA	-1.52 ± 0.9	-1.65 ± 0.6

Sequence	self-splicing fitness (ln) (30 °C)	self-splicing fitness (ln) (37 °C)
GGAUAGCAAUAUUACGGCAG	-3.63 ± 0.74	-2.18 ± 0.22
AACUAGCAAUAUUACGACGA	-0.137 ± 0.066	-0.576 ± 0.074
UAUCAGCAAUAUUACGUUCC	-1.78 ± 0.84	-0.796 ± 0.58
GUCGAGCAAUAUUACGUCGC	-1.55 ± 0.83	-1.05 ± 0.53
GGAGAGCAAUAUUACGCUUU	-3.16 ± 0.53	-3 ± 0.61
UCGGAGCAAUAUUACGUCGC		-2.4 ± 0.77
AGUUAGCAAUAUUACGCCCC		-1.13 ± 0.6
GUUGAGCAAUAUUACGCCGC	-3.06 ± 0.44	-2.15 ± 0.5
AUCGAGCAAUAUUACGGUUC		-3.13 ± 0.74
GGUAAGCAAUAUUACGGCCC	-3.21 ± 0.54	-0.778 ± 1
CUGUAGCAAUAUUACGUCCA	-4.04 ± 0.76	
AUUAAGCAAUAUUACGAAUC	-3.75 ± 0.52	-0.919 ± 0.72
GAAUAGCAAUAUUACGACCC		-0.259 ± 0.51
CUCCAGCAAUAUUACGACCA	-3.36 ± 0.55	
GGGAAGCAAUAUUACGCCCC		0.608 ± 1.1
CCGUAGCAAUAUUACGCCCA	-2.81 ± 1.1	-2.54 ± 0.48
CCGGAGCAAUAUUACGGGUA		-1.91 ± 0.63
AAAGAGCAAUAUUACGCCCG		-0.0848 ± 1.2
CAUUAGCAAUAUUACGCAAU	-4.45 ± 0.74	
AAAGAGCAAUAUUACGGAGC		-2.9 ± 0.53
GAAGAGCAAUAUUACGAUCG	-2.28 ± 0.72	-1.15 ± 0.75
GGUAAGCAAUAUUACGGGGU	-2.71 ± 0.65	
AUUAAGCAAUAUUACGCGAC	-1.76 ± 0.54	
